Assay results taken from patent publication US20200230201A1 (CITY OF HOPE, published 2020).
Results are given in words; binding and its absence hold for the method and conditions named. Binding seen in cells or lysates may run through a third protein. Some binding calls cover weakened binding; strength is not graded here. Sequences can lack the tags named with a protein.

Amino acid sequences for entries named in this document (tags omitted). A change or cut given only in a name is not applied to a line headed by its entry.
UniProt Q15672: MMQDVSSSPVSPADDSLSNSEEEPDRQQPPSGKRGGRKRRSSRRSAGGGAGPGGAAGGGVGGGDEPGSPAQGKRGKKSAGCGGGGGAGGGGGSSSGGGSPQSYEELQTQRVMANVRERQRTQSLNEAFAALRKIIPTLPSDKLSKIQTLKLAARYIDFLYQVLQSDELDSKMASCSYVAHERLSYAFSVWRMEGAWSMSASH

What was measured:
[1] = molecular target: TWIST1 (wild type, Myc-His tagged) (human) (UniProt Q15672); assay: Co-IP, GFP pulldown (FIG. 4D legend)
[2] = molecular target: TWIST1 (wild type, Myc-His tagged) (human) (UniProt Q15672); assay: Co-IP, GFP pulldown, western blot for TWIST1, HEK-293 cells

B1: GFP-WR domain fusion protein (peptide, not shown: large carriers)
chain: LELSYAFSVWRMEGAWSMSASH
With B1 as the binder, how does the binding [1] read?
The binding was “binds”.

And the binding [2]?
Its binding is “binds”.
